Source: PubChem BioAssay AID540256 (National Center for Advancing Translational Sciences (NCATS), 2011)
The whole screen tested about 300,000 compounds, of which about 3,700 (1.2%) were called active. Inconclusive means that the source gave no clear call. Such entries were picked first, then a sample of the others. Calls follow the shape of the full dose curve; tested in HEK293 cells. Potencies beside an inconclusive call are fits to weak or partial responses and may not hold up.
% is scaled to controls: 0 for no effect and ±100 for the full control effect; potency is read from the fitted curve at half-maximal effect.

Assay: qHTS for Inhibitors of binding or entry into cells for Lassa Virus; also: nearly all actives have a fitted effect of over 50% in size
Conditions: Lassa virus pseudotype entry inhibition, cell reporter; activity change, negative = inhibition: at 37.9 µM (top of the series) unless noted
With `CCc1nc(N2CCCCC2C(=O)O)c2oc3ccccc3c2n1` (centres undefined) the “activity change, negative = inhibition” value was inactive: 4.13% [at 46.1 µM]. With `Nc1cc(=O)[nH]c(SCC(=O)Nc2ccc3c(c2)CCC3)n1` the Potency was inconclusive: 10 µM [inhibitor, partial curve, poor fit]. With `COc1ccc(C(C)=O)cc1CC(C(=O)c1ccc(F)cc1)N(C)C` (centres undefined) the “activity change, negative = inhibition” value was inactive: -0.755%. With `CCCOc1cccc(C2C(C(=O)c3ccc(C)o3)=C(O)C(=O)N2c2nc(C)c(C(C)=O)s2)c1` (centres undefined) the “activity change, negative = inhibition” value was inactive: -1.99% [at 46.1 µM]. In the case of `COc1ccc(NC(=O)c2c(C)oc3ccc(O)c(CN4CCCCCC4)c23)cc1Cl`, the Potency was inconclusive: 12.6 µM [inhibitor, partial curve, poor fit]. With `O=C(O)c1ccccc1SCC(=O)N1CCCCC1` the “activity change, negative = inhibition” value was inactive: -2.41%. In the case of `O=[N+]([O-])c1ccc(Cl)cc1CNc1ccc(F)c(F)c1`, the “activity change, negative = inhibition” value was inactive: -1.08%. In the case of `O=c1oc2ccccc2c(Nc2ccc3ccccc3c2)c1[N+](=O)[O-]`, the “activity change, negative = inhibition” value was inactive: -14.1%. In the case of `N/C(=N\OC(=O)c1ccc([N+](=O)[O-])cc1)c1ccccn1`, the Potency was inconclusive: 0.82 µM [activator, full curve, poor fit]. In the case of `CN(C)/C=N/c1ncc(C(=O)c2ccccc2)s1`, the Potency was inconclusive: 6.51 µM [activator, single point]. For `COc1cc(/C=C/C(=O)OCC(=O)Nc2ccc(S(=O)(=O)N3CCCC3)cc2)ccc1O`, the Potency was inconclusive: 11.2 µM [inhibitor, partial curve, poor fit]. With `CN(C)CCNC(=O)c1cc2sc3ccccc3c2s1` the Potency was inconclusive: 35.5 µM [inhibitor, single point]. In the case of `Cc1ccc(NC(=O)Cn2nc(C)n3cccc3c2=O)c(C)c1`, the “activity change, negative = inhibition” value was inactive: 12.4% [at 46.1 µM]. In the case of `Cc1cc(C)nc(NC(=O)/C=C/c2ccccc2Cl)c1`, the “activity change, negative = inhibition” value was inactive: -19.4%. With `COc1ccc(-c2noc(-c3ccccc3C(=O)Nc3cccnc3)n2)cc1` the “activity change, negative = inhibition” value was inactive: -23.3%. With `CCOCCCNC(=O)C(c1ccc(OC)cc1)N(Cc1ccc2c(c1)OCO2)C(=O)c1ccccc1O` (centres undefined) the Potency was inconclusive: 22.4 µM [inhibitor, single point]. With `CS(=O)(=O)c1ncc(Cl)c(C(=O)Nc2ccc(OC(F)F)cc2)n1` the Potency was inconclusive: 14.1 µM [inhibitor, single point]. With `CC1Cc2cc(S(=O)(=O)N3CCN(c4ccccc4F)CC3)ccc2N1C(=O)C1CC1` (centres undefined) the Potency was inconclusive: 7.08 µM [inhibitor, full curve, poor fit]. For `CCCC(=O)NC1=C(N2CC2)C(=O)C(NC(=O)CCC)=C(N2CC2)C1=O`, the Potency was inconclusive: 10 µM [inhibitor, partial curve, poor fit]. In the case of `COc1cccc(C2(O)CCN(CC(=O)NCC3CC3)CC2)c1`, the “activity change, negative = inhibition” value was inactive: -15.5%. With `CCOc1ccccc1N1CC(c2nc3ccccc3n2Cc2c(C)cc(C)cc2C)CC1=O` (centres undefined) the Potency was inconclusive: 35.5 µM [inhibitor, single point]. With `O=C(Nc1nccs1)c1ccc2c(=O)n3c(nc2c1)CCCCC3` the Potency was inconclusive: 11.2 µM [inhibitor, partial curve, poor fit]. With `COc1ccc(OC)c(CCNC(=O)CN2C(=O)COc3ccc(S(=O)(=O)N4CCOCC4)cc32)c1` the “activity change, negative = inhibition” value was inactive: 0.709% [at 46.1 µM]. For `COc1ccccc1N1CCN(S(=O)(=O)CCNC(=O)COc2ccc(C(C)C)cc2)CC1`, the Potency was inconclusive: 17.8 µM [inhibitor, single point]. For `Cc1sc2ncn(CC(=O)N3CCN(c4cccc(Cl)c4)CC3)c(=O)c2c1S(=O)(=O)N1CCN(c2ncccn2)CC1`, the Potency was inconclusive: 14.1 µM [inhibitor, partial curve, poor fit]. For `COc1ccc(N/N=C(/C#N)S(=O)(=O)c2nsc(C)c2C#N)cc1`, the “activity change, negative = inhibition” value was inactive: -18.8%. For `CCC(C)(C)n1nnnc1C(c1cccc(C#N)c1)N1CCN(c2cccc(C)c2C)CC1` (centres undefined), the Potency was inconclusive: 8.2 µM [inhibitor, partial curve]. In the case of `CC1CCCCC1NC(=O)CN1C(=O)CSc2cc(S(=O)(=O)N3CCCCCC3)ccc21` (centres undefined), the “activity change, negative = inhibition” value was inactive: -5.81%. For `Cc1ccc(NC(=O)CNC(=O)c2ccc3c(c2)OCO3)nc1`, the “activity change, negative = inhibition” value was inactive: 11.2% [at 46.1 µM]. In the case of `O=C(CCc1ccccc1Cl)Nc1ccc(S(=O)(=O)N2CCOCC2)cc1`, the Potency was inconclusive: 35.5 µM [inhibitor, single point]. For `Cc1ccc(S(=O)(=O)C/N=C(/NC(=S)N(c2ccccc2)c2ccccc2)c2ccccc2)cc1`, the “activity change, negative = inhibition” value was inactive: -7.24%. For `COc1ccc(-c2nc3ccccc3o2)cc1NC(=O)COc1ccc(C(C)(C)C)cc1`, the “activity change, negative = inhibition” value was inactive: 14.4% [at 46.1 µM]. With `COc1cccc(N2CC(NC(=O)c3ccc(S(=O)(=O)N4CCCCC4)cc3)CC2=O)c1` (centres undefined) the “activity change, negative = inhibition” value was inactive: -0.0924% [at 46.1 µM]. With `Cc1cccc2cc3c(NC(=O)C(C)(C)C)nn(CC(C)C)c3nc12` the “activity change, negative = inhibition” value was inactive: 11.3%. In the case of `COc1ccc(C2CC(c3ccc4ccccc4c3)=NN2C(=O)CN2CCC(C(N)=O)CC2)cc1` (centres undefined), the “activity change, negative = inhibition” value was inactive: 2.22%. In the case of `CCc1ccc(Nc2cnn(-c3nc4ccccc4s3)c(=O)c2Cl)cc1`, the “activity change, negative = inhibition” value was inactive: -15.5%. In the case of `CCOC(=O)CCCc1ccc(/C(C)=N/NC(N)=S)cc1`, the Potency was inconclusive: 6.31 µM [inhibitor, full curve, poor fit]. In the case of `CCCCOC1CC(c2ccc(OCc3ccc(OC)cc3)c(OC)c2)N(C)O1` (centres undefined), the Potency was inconclusive: 14.1 µM [inhibitor, single point]. In the case of `O=C(NCCCn1ccnc1)c1ccc(S(=O)(=O)N2CCOCC2)cc1`, the “activity change, negative = inhibition” value was inactive: -12.2%. For `Cc1ccccc1OC(=O)CSc1nnc(-c2cccs2)o1`, the “activity change, negative = inhibition” value was inactive: 15% [at 46.1 µM]. For `Cc1ccc(C)c(Cn2nc(-c3cc(C)ccc3C)ccc2=O)c1`, the Potency was inconclusive: 6.31 µM [inhibitor, full curve, poor fit]. In the case of `COc1ccc(C(=O)NC(=O)COC(=O)CCS(=O)(=O)c2ccc(C)cc2)cc1`, the Potency was inconclusive: 1.26 µM [inhibitor, single point]. For `O=C(NCCc1ccccc1)c1ccc(CSc2nc3ccncc3n2Cc2ccc(F)cc2)cc1`, the “activity change, negative = inhibition” value was inactive: -28.3% [at 46.1 µM]. In the case of `Cc1c(NC(=O)c2ccc(NS(=O)(=O)c3cccc([N+](=O)[O-])c3)cc2)c(=O)n(-c2ccccc2)n1C`, the “activity change, negative = inhibition” value was inactive: 0.227%. In the case of `CCc1ccc(NC(=O)CSc2nc3n[nH]c(C)c3c(=N)n2-c2cccc(OC)c2)cc1`, the Potency was inconclusive: 9.2 µM [inhibitor, partial curve]. For `CCOc1cc(/C=N/N=C(\N)c2nonc2N)cc(Br)c1OCc1cccc2ccccc12`, the Potency was inconclusive: 12.6 µM [inhibitor, partial curve, poor fit]. In the case of `COc1ccc(CNC(=S)Nc2cccc(OC)c2)cc1`, the Potency was inconclusive: 35.5 µM [inhibitor, single point]. For `COc1cccc(CNCCSc2nnnn2C)c1OCc1ccccc1F`, the Potency was inconclusive: 35.5 µM [inhibitor, single point]. For `COc1ccc(CCNC2CC(C)N(C)CC2C)cc1OC` (centres undefined), the Potency was inconclusive: 6.51 µM [inhibitor, partial curve]. In the case of `O=[N+]([O-])c1ccc(Cl)c(S(=O)(=O)/N=C(/c2ccccc2)N2CCOCC2)c1`, the Potency was inconclusive: 15.8 µM [activator, partial curve, poor fit]. With `Cc1ccsc1/C=N/Nc1nc(Cl)c(Cl)cc1Cl` the Potency was inconclusive: 0.259 µM [activator, full curve, poor fit]. For `Cc1cc(C(=O)N/N=C/c2cc(Br)ccc2OC(=O)c2ccccc2Cl)n[nH]1`, the Potency was active: 10 µM. With `COc1ccc(OC)c(NC(=O)CN2C(=O)CCc3cc(S(=O)(=O)N4CCCCC4)ccc32)c1` the Potency was inconclusive: 0.794 µM [activator, partial curve, poor fit]. In the case of `Cc1ccc(S(=O)(=O)Nc2cccnc2)cc1C`, the Potency was inconclusive: 22.4 µM [inhibitor, single point]. With `S=C(NCc1ccc(Cl)cc1)NC1CCCCC1` the “activity change, negative = inhibition” value was inactive: -10.7%. With `CC1CCCN(C(=O)COC(=O)Cc2c(F)cccc2Cl)C1` (centres undefined) the Potency was inconclusive: 35.5 µM [activator, single point]. In the case of `CCOC(=O)C1CCN(c2ncnc3c2c(-c2ccccc2)cn3-c2ccccc2)CC1`, the Potency was inconclusive: 12.6 µM [inhibitor, partial curve, poor fit]. For `CCC(=O)c1ccc(OCC(=O)OCC(=O)Nc2sccc2C(N)=O)cc1`, the “activity change, negative = inhibition” value was inactive: -2.29% [at 46.1 µM]. In the case of `CCN(CC)Cc1c(O)ccc2c([N+](=O)[O-])c(C)n(-c3ccc(OC)cc3)c12`, the “activity change, negative = inhibition” value was inactive: -4.41%. In the case of `CCSC1(SCC)N=C(N)C2(C#N)C(c3ccc(OC)c(OC)c3OC)C12C#N` (centres undefined), the Potency was inconclusive: 25.1 µM [inhibitor, partial curve, poor fit]. In the case of `Cc1ccccc1OCC(=O)Nc1ccc(N2CCN(C(=O)C(C)C)CC2)c(Cl)c1`, the Potency was inconclusive: 29.1 µM [inhibitor, single point]. With `O=c1c(Cl)c(Cl)cnn1Cc1nnc(-c2ccc(Cl)cc2)o1` the Potency was inconclusive: 11.2 µM [inhibitor, partial curve, poor fit]. In the case of `O=C(Nc1ccn(Cc2c(F)c(F)c(F)c(F)c2F)n1)c1cccc(Cn2cc([N+](=O)[O-])cn2)c1`, the “activity change, negative = inhibition” value was inactive: -20%. For `CCn1cc(-c2ccnc3[nH]ccc23)c(-c2cccc(NC(=O)Nc3ccc(OCc4ccccc4)cc3)c2)n1`, the Potency was inconclusive: 31.5 µM [inhibitor, partial curve, poor fit]. For `CCOC(=O)C1(Cc2ccccc2C(F)(F)F)CCN(C2CCCC2)CC1`, the Potency was inconclusive: 10 µM [inhibitor, partial curve, poor fit]. With `Cc1ccc(CN2C(=O)C3(c4ccccc42)N(c2cccc(C(F)(F)F)c2)C(=O)CS3(=O)=O)cc1` (centres undefined) the “activity change, negative = inhibition” value was inactive: -18.9% [at 46.1 µM]. In the case of `Cc1ccc(S(=O)(=O)Nc2ccccc2/C=N/c2nc3ccccc3n2C(C)C)cc1`, the Potency was inconclusive: 35.5 µM [inhibitor, partial curve, poor fit]. With `Cc1cc2ccccc2c(=O)n1CC(=O)N(C)c1ccc(F)cc1` the “activity change, negative = inhibition” value was inactive: -1.89%. In the case of `Cc1nnc(NCc2ccccc2)c2c1nnn2Cc1ccc(F)cc1`, the Potency was inconclusive: 31.6 µM [inhibitor, single point].
